# According to PubChem BioAssay AID743327 (National Center for Advancing Translational Sciences (NCATS), 2014):
# The hits were mostly taken out for another list; the other results follow. Active and inactive are the calls of the source. Calls follow the shape of the full dose curve.
# Test: qHTS profiling of Chloroquine Analogs as inhibitors of Plasmodium falciparum (HB3) proliferation
# Settings: P. falciparum HB3 proliferation; at 28.7 µM (top of the series)
# Text: Plasmodium falciparum is a virulent malarial parasite that kills 1-2 million people worldwide each year. Transmitted by mosquitoes, the sporozoite form of the parasite enters the blood stream to infect hepatocytes, where they become merozoites that infect red blood cells (erythrocytes). Within erythrocytes, merozoites begin a […] cycle of growth and division, after which the parasite is released to infect new red blood cells. Gametocytes, which form within erythrocytes as well, circulate in the bloodstream and are ingested by the mosquito, thereby completing the life cycle. To profile malarial isolates for differential chemical responses and to identify inhibitors of malarial growth, an assay that measures P. falciparum growth and replication within erythrocytes was employed. […] Because mature erythrocytes lack DNA, only Plasmodium-derived DNA is detected.
# The SYBR Green viability assay was adapted from a method described previously (Plouffe et al., 2008). […] The following morning, fluorescence intensity at 485(14) nm excitation and 535(25) nm emission wavelengths was measured on an EnVision (Perkin Elmer) plate reader. Plate reads were normalized relative to the control inhibitor (0.29 uM artemisinin) and vehicle (DMSO) wells present on each plate and then corrected by an algorithm using vehicle-only control plates at the beginning and end of the compound plate stack.
row,SMILES,"activity change, negative = inhibition"
1,O=C(CCCCCCC(=O)Nc1ccccc1)NO,inactive: -101%
